Structures were worked out from names or drawings and are uncertain.
Biological target: ERα protein (HiBiT-tagged) in ESR1_HiBiT KI MCF7 cells (Homo sapiens, UniProt P03372)
Assay: Nano Glo HiBiT Lytic Degradation Assay
Format: cell-based
Details: read-out: MCF7 ESR1 HiBiT - (DC50), 6 hours with compound, 14-point dose response 1:3, bell-shape curve fit, half-maximal effect of first Hill model

Amino acid sequences for entries named in this document (tags omitted).
UniProt P03372, whole entry: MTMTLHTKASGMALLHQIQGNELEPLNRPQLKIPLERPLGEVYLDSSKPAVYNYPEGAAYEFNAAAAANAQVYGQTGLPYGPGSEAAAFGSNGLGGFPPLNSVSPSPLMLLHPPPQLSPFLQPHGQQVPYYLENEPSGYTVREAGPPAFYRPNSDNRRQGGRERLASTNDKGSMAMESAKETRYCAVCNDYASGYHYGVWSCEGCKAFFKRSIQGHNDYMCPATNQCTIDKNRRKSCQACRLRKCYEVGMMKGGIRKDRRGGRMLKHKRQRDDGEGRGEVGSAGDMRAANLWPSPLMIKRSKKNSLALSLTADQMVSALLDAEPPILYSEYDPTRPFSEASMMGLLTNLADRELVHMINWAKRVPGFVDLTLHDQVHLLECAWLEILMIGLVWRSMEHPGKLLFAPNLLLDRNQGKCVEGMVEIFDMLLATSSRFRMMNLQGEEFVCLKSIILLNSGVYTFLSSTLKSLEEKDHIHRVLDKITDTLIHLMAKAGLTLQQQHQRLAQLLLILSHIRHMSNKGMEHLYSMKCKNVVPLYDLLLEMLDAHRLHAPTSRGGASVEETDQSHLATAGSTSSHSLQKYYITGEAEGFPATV

For `Cc1ccc(F)cc1[C@@H]1OCc2cc(O)ccc2[C@@H]1c1ccc(N2CCC(CN3CCN(c4ccc5c(c4)CN([C@H]4CCC(=O)NC4=O)C5=O)CC3)CC2)cc1`, the DC50 was 6 nM.
`COC(OC)C1CCN(c2cc(C)c([C@@H]3c4ccc(O)cc4CC[C@@H]3C3CCCCC3)c(F)c2)CC1` showed a DC50 of at least 10000 nM.
